For one molecule, binding results are on record in PMC8508952.

Chains of the proteins cited; added tags and fusions are not shown. Residues count along the entry.
UniProt P01833, residues 19-764: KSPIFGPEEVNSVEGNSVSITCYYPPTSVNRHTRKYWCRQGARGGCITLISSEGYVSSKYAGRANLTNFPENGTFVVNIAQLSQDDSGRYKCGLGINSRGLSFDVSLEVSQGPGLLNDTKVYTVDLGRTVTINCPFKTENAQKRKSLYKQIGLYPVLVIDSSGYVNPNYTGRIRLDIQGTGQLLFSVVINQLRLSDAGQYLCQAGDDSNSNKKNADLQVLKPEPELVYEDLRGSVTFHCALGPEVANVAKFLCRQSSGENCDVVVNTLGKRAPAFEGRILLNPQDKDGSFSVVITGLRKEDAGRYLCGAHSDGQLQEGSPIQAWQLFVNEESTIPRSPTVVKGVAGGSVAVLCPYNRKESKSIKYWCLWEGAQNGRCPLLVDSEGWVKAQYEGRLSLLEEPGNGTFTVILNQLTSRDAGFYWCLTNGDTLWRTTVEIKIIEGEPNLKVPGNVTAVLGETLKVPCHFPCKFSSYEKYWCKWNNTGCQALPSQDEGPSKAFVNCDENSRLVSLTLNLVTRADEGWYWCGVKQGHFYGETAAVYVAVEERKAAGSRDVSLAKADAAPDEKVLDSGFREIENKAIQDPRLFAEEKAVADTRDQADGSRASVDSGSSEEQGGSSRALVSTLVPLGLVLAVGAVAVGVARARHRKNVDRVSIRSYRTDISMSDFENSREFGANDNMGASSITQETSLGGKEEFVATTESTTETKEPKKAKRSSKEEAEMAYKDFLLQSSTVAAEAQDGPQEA

These are yes or no findings as the source states them, for the method shown. Binding seen in cells or lysates may run through a third protein. These calls come from enrichment with a bait or labelling near it, and not all partners need be listed.

This assay concerns the target pIgR-BirA* (human) (UniProt P01833). Briefly: proximity labelling; BioID: HEK293T cells expressing pIgR-BirA*, 50 µM biotin; NP-40 lysis; biotin-labelled proteins enriched on streptavidin agarose beads; mass spectrometry and immunoblotting. In general terms: A western blot detects proteins with antibodies after separation by electrophoresis.

B1: Rab11-FIP1, endogenous in HEK293T cells (protein, UniProt Q6WKZ4 1-1283)
chain: MSLMVSAGRGLGAVWSPTHVQVTVLQARGLRAKGPGGTSDAYAVIQVGKEKYATSVSERSLGAPVWREEATFELPSLLSSGPAAAATLQLTVLHRALLGLDKFLGRAEVDLRDLHRDQGRRKTQWYKLKSKPGKKDKERGEIEVDIQFMRNNMTASMFDLSMKDKSRNPFGKLKDKIKGKNKDSGSDTASAIIPSTTPSVDSDDESVVKDKKKKSKIKTLLSKSNLQKTPLSQSMSVLPTSKPEKVLLRPGDFQSQWDEDDNEDESSSASDVMSHKRTASTDLKQLNQVNFTLPKKEGLSFLGGLRSKNDVLSRSNVCINGNHVYLEQPEAKGEIKDSSPSSSPSPKGFRKKHLFSSTENLAAGSWKEPAEGGGLSSDRQLSESSTKDSLKSMTLPSYRPAPLVSGDLRENMAPANSEATKEAKESKKPESRRSSLLSLMTGKKDVAKGSEGENPLTVPGREKEGMLMGVKPGEDASGPAEDLVRRSEKDTAAVVSRQGSSLNLFEDVQITEPEAEPESKSEPRPPISSPRAPQTRAVKPRLEVSPEAQPTARLPSPTDSPSSLPPLPSSSGQASVPSELGHGADTQSSESPSVFSSLSSPIAAPISTSTPIESWPLVDRGQAKSEGPPLLPKAELQTESLTPVPNSGSSALGSLFKQPSFPANKGTEDSLMGRTRETGTEKNTSSLELEESLPEQPETGRQEEELPRFPCKKQDYSPSSGEAQEVPFALSLSSDGAVSPVGELAAGGDRDLESQAGSLVESKARDAAEEVAPPLPMGASVPSIDSMMRKLEEMGLNLRKDQKKTKKRVSFSEQLFTEEAVAGAALLVEGHSSCPQELNPAWSVAGNASDGEPPESPHAEDSERESVTTPGPATCGAPASPADHLLLPSQEESFSEVPMSEASSAKDTPLFRMEGEDALVTQYQSKASDHEGLLSDPLSDLQLVSDFKSPIMADLNLSLPSIPEVASDDERIDQVEDDGDQVEDDGETAKSSTLDIGALSLGLVVPCPERGKGPSGEADRLVLGEGLCDFRLQAPQASVTAPSEQTTEFGIHKPHLGKSSSLDKQLPGPSGGEEEKPMGNGSPSPPPGTSLDNPVPSPSPSEIFPVTHSFPSSAHSDTHHTSTAESQKKATAEGSAGRVENFGKRKPLLQAWVSPSETHPVSAQPGAGTGSAKHRLHPVKPMNAMATKVANCSLGTATIISENLNNEVMMKKYSPSDPAFAYAQLTHDELIQLVLKQKETISKKEFQVRELEDYIDNLLVRVMEETPNILRIPTQVGKKAGKM
modifications: biotin (labelled by pIgR-BirA*)
On to B1, for which the binding result is given as “binds”.
